We go through 1 molecule from US20200340003A1.

These are yes or no findings as the source states them, for the method shown. Binding seen in cells or lysates may run through a third protein. Some binding calls cover weakened binding; strength is not graded here.

The target in test [1] is T1, TET9 (Arabidopsis … 9) (Arabidopsis) (UniProt Q9M0B7).
T1 sequence (looked up): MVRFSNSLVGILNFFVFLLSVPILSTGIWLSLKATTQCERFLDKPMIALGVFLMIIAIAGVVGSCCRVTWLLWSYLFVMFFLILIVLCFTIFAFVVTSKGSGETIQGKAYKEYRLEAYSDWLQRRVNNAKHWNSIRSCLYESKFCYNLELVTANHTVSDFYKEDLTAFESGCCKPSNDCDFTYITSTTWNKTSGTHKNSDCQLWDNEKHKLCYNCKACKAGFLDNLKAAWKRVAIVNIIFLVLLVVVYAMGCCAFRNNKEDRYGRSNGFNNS
The experiment in a line: reciprocal co-immunoprecipitation in vivo, anti-FLAG M2 affinity gel, Western blot with anti-FLAG and anti-GFP. (Immunoblotting shows a protein as a band on a membrane.)

In test [2] the target is T1, TET9 (Arabidopsis … 9) (Arabidopsis). The test can be described thus: co-immunoprecipitation with anti-FLAG M2 affinity gel, Western blot with anti-FLAG and anti-GFP antibodies.

B1: TET8 (Arabidopsis … 8) (protein, UniProt Q8S8Q6 1-273, looked up)
chain: MARCSNNLVGILNFLVFLLSIPILAGGIWLSQKGSTECERFLDKPVIALGVFLMVVAIAGLIGSCCRVTWLLWVYLFVMFLLILLVFCITVFAFVVTNKGAGEAIEGKGYKEYKLGDYSTWLQKRVENGKNWNKIRSCLVESKVCSKLEAKFVNVPVNSFYKEHLTALQSGCCKPSDECGFEYVNPTTWTKNTTGTHTNPDCQTWDNAKEKLCFDCQSCKAGLLDNVKSAWKKVAIVNIVFLVFLIIVYSVGCCAFRNNKRDDSYSRTYGYKP
Regarding B1, the binding entry in test [1] and in test [2] was “binds” throughout.
